# Percent effect of library compounds

Mtb cholesterol medium: 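Whole-cell growth test on Mycobacterium tuberculosis, read after 4 days in a medium based on cholesterol and the lipid DPPC; the read-out is not stated. Tested at 50 µM. Higher reads as more growth inhibition (inferred: compounds with an IC50 in retests scored well above the rest). About 69,000 compounds were tested under these conditions; 0.54% (about 370) showed 50% or more at least once.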
Mtb glucose medium: 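Phenotypic screen: M. tuberculosis growth, glucose 7H9 medium, 3 days; the read-out is not stated. Compounds at 50 µM. The record gives no direction; compounds that gave an IC50 in retests scored well above the rest, so higher reads as more growth inhibition. Size under these conditions: about 69,000 compounds, about 760 of them at 50% or above in at least one test.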

Each number is a percent effect as filed. How 0% and 100% were set is not recorded. Most values in the screen are low, and negative values occur. Compounds were drawn at random from those tested, without regard to their results. Two or more numbers in one place are separate tests of the same structure; such repeats can differ widely.

| structure | Mtb cholesterol medium | Mtb glucose medium |
|---|---|---|
| `Cn1ccc(CN2CCC(CN3CCOCC3)CC2)cc1=O` | 8.282% | 18.72% |
| `O=C(O)CN1CCC(c2ccccc2)C1` (stereo not shown) | -13.31% | -6.838% & -1.916% |
| `O=S(=O)(C1CC1)N1CCOCC2(CN(c3ncccn3)CCO2)C1` (stereo not shown) | -8.061% | 14.59% |
| `Cc1cnccc1N1CCCN(Cc2ccc(-c3cc[nH]n3)o2)CC1` | -2.204% & -6.73% | -44.46% |
| `COc1cccc(CC(=O)N2CCC(NCc3c[nH]nc3C)CC2)c1` | -9.455% | -5.726% |
| `CC(C)n1cc(S(=O)(=O)N2CCCCC2)cn1` | -11.01% | -0.8782% |
| `[H][C@]12CC[C@]([H])(CN(C(=O)c3cscn3)C1)N(Cc1c(C)noc1C)C2=O` | -6.849% | -23.38% |
| `CN1CCN(C(=O)c2n[nH]c3c2CN(C2CCOCC2)CC3)CC1.O=C(O)C(F)(F)F.O=C(O)C(F)(F)F.O=C(O)C(F)(F)F` | -3.326% | 20.2% |
| `COc1c(Cl)cc(C(=O)NCCNc2ncccn2)cc1Cl` | -31.46% | -46.46% |
| `CC(CCN1CCCC1=O)NCc1cnc(C2CCC2)s1` (stereo not shown) | -7.363% & 6.543% | 9.2% |
| `O=C(O)C(F)(F)F.[H][C@]12CCC[C@@]1(COCC1CC1)CN(Cc1cnn(C)c1)C2` | 0.4024% | -13.47% |
| `N#Cc1ccc(OCCCN2CCc3cncnc3C2)cc1` | -10.51% | 4.676% |
| `CN1CCC(c2cccc(-c3cccc(C(=O)O)c3)n2)CC1` | -19.83% | -31.11% |
| `Cc1noc(CN2CCN(CCS(C)(=O)=O)CC2)n1` | 4.732% | -2.006% & -3.529% |
| `CNC(=O)[C@@H](c1ccccc1)N1CCC[C@H]1C(=O)NCc1cccnc1.Cl.Cl` | 7.774% | 0.112% & 5.53% |
| `Cc1cccn2c(=O)cc(OC(=O)c3ccccc3)nc12` | -11.14% | -14.51% & 11.71% |
| `COc1ccc(OC)c(CNC(=O)N2CCC(n3cncn3)CC2)c1` | -32.91% | -25.08% |
| `Cc1ncsc1CNC(=O)N1CCN(Cc2ccccc2)C[C@H]1C` | 3.396% | -16.95% |
| `COc1ccc(CN2CCc3ncnc(OC(C)C)c3CC2)cc1.O=C(O)C(F)(F)F` | -16.59% | -48.31% |
| `Cc1cc(N2CCC(N(C)C(=O)c3cccs3)CC2)nc(C)n1` | 13.11% | -25.03% |
| `CC(Nc1cccc(CN2CCOC2=O)c1)C(=O)Nc1ccccc1` (stereo not shown) | 4.398% | -14.34% |
| `O=C(O)C(F)(F)F.[H][C@]12CN(Cc3csc(C)n3)C(=O)[C@@]1([H])CN(c1ncc(CC)cn1)C2` | 12.31% | 14.8% & 19.37% |
| `Cc1nc(C2CCCN(C(=O)COCCc3ccccc3)C2)no1` (stereo not shown) | 24.47% | 1.163% |
| `CC(C)NC(=O)c1nnn(-c2cccc(C(F)(F)F)c2)c1N` | -13.13% | -16.49% & 22.79% |
| `Clc1snnc1CN1CCOC(CNc2cccnn2)C1` (stereo not shown) | -3.991% | 10.29% |
| `CC(C)[C@@H]1CN(c2ccc(C(F)(F)F)cn2)C[C@H]1NS(C)(=O)=O` | -21.84% | -21.27% & 12.14% |
| `O=C(NCC(O)c1cccc(F)c1)C1CCN(C(=O)C2CCC2)CC1` (stereo not shown) | -3.856% | -20.75% & 6.344% |
| `COCCNC(=O)c1cc2c(s1)CCN2C(=O)c1ccccc1` | 1.556% | 1.371% |
| `CN(Cc1ccncc1)C(=O)NCc1nnc2n1CCCCC2` | -22.05% | 37.06% & 1.242% |
| `CC(NC1CCN(CCS(C)(=O)=O)CC1)c1ccc(Cl)cc1` (stereo not shown) | 3.39% | -9.225% |
| `CC(=O)c1ccc(-c2cnn(CC(=O)Nc3ccnn3C)c2)nc1` | 3.023% | 5.94% & -8.926% |
| `O=C(CN1CCN(c2nccs2)CC1)Nc1cccnc1` | -9.529% | -5.848% & -4.757% |
| `O=C1CC2(CCN(CC3CC3)CC2)CN1Cc1cc(F)cc(F)c1` | 6.239% | 14.67% |
| `Cc1csc(C2CCCCN2C(=O)CN(C)Cc2ccccc2)n1` (stereo not shown) | -0.7216% | -0.4466% |
| `CC(C)c1cc(O)nc(C2CCCN2C(=O)C2CC2)n1` (stereo not shown) | -36.6% | -12.88% |
| `COc1cccc2ccc(CN3CCN(c4ncccn4)CC3)nc12` | -11.21% | 2.391% |
| `Cc1ncsc1CCN(C)Cc1ccc(CO)o1` | -10.29% | -6.643% & -23.88% |
| `CC(c1ccccn1)N(C)Cc1cc2cc3c(cc2[nH]c1=O)OCO3` (stereo not shown) | -8.662% | -3.964% |
| `Cc1cc(C2CCCN(CCCNS(C)(=O)=O)C2)n[nH]1` (stereo not shown) | -6.369% | -1.52% |
| `O=C(c1ccon1)N1CCc2ncnc(NCc3ccccn3)c2CC1` | -2.406% | 3.201% |
| `CN1C(=O)C2(CCNCC2)c2cc(F)ccc21.Cl` | -0.2611% | -16.85% |
| `CNc1ncc(CN(C)C(=O)c2cccc(-n3cnnc3)c2)cn1` | -11.87% | 17.28% |
| `CN(CC(O)C1CC1)C(=O)Nc1cc(F)cc(Br)c1` (stereo not shown) | 6.548% | -16.62% & 8.517% |
| `Cc1cccc(C(C(=O)N2CCN(C(=O)c3ccc[nH]3)CC2)N(C)C)c1` (stereo not shown) | -3.603% | 11.36% |
| `CNCc1ccc(OCc2ccc3c(c2)OCCO3)cc1.Cl` | -0.5759% | 7.383% |
| `O=C1NC(C(=O)NCc2cccnc2Oc2ccccc2F)CO1` (stereo not shown) | -16.12% | 1.307% |
| `Cn1cc(C(=O)N2CCOc3cc(F)ccc32)ccc1=O` | -22.32% & 5.806% | -7.034% |
| `O=C(CSC1=NS(=O)(=O)c2cc(F)ccc2N1)c1ccccc1` | -1.966% | 16.69% |
| `O=C(Nc1ccccc1C(=O)NCCN1CCOCC1)c1ccco1` | -4.216% | 21.44% & 0.4053% |
| `Cn1ccc(-c2cc(C(=O)N3CCOCC3)c3ccccn23)n1` | -36.12% | -6.598% |
| `CNC(=O)CCc1cccc(OC2CCCC2)c1` | 3.268% | 2.052% |
| `O=S(=O)(NCC1CCN(c2cnccn2)CC1)c1cccs1` | -6.772% | 0.3286% |
| `Cc1cnn(CC2CCCN2C(=O)c2n[nH]c(=O)c3ccccc23)c1` (stereo not shown) | 20.84% | 27.27% |
| `CC(C)c1nnc2n1CCN(C(=O)c1ccc(OCC3CC3)nc1)C2` | -7.127% | -3.802% & -5.362% |
| `O=C(NCC1(O)CCSCC1)c1ccoc1` | -1.41% & -4.133% | 10.07% |
| `Cc1nnc(CNC(C)c2cc(C)c(F)c(C)c2)s1` (stereo not shown) | 5.308% | 14.85% & 4.02% |
| `COc1ccc([C@@H]2CN(C(=O)c3cscn3)C[C@H]2C(=O)O)cc1` | -3.968% | -33.04% |
| `COc1ccc(CN2C[C@@H](F)[C@@H](OCc3nc4ccccc4[nH]3)C2)cn1` | 1.525% | -0.5578% & -2.66% |
| `Cl.O=C1N(Cc2ccc(Cl)cc2)CCC12CCCNC2` (stereo not shown) | -17.73% | -9.834% |
| `CC1(C)[C@H](Cc2cc(CN3CCCCC3)on2)C[C@@H]1NC(=O)C1CC1` | -38.03% | -7.124% & -32.49% |
| `COCCN1CCC2(CC1)CN(Cc1cccc(C)n1)C(=O)CO2` | 12.01% | 0.2608% |
| `CCOCc1cccc(S(=O)(=O)Nc2ccn(CC)n2)c1` | -9.551% | 47.14% |
| `COc1ccc(CN2CC[C@@H](O)[C@@H]2Cc2ccccc2)cc1.O=C(O)C(F)(F)F` | -21.99% | -17.04% |
| `O=C(O)C(F)(F)F.O=C(c1ccc[nH]1)N1CCn2cc(Cn3cccn3)nc2C1` | 12.13% & 7.228% | -1.01% |
| `COc1c(C2CCCN2C(=O)c2sccc2C#N)c(C)nn1C` (stereo not shown) | 5.087% & 1.215% | -13.94% |

The last 5 entries again:

| structure | Mtb cholesterol medium | Mtb glucose medium |
|---|---|---|
| `COCCN1CCC2(CC1)CN(Cc1cccc(C)n1)C(=O)CO2` | 12.01% | 0.2608% |
| `CCOCc1cccc(S(=O)(=O)Nc2ccn(CC)n2)c1` | -9.551% | 47.14% |
| `COc1ccc(CN2CC[C@@H](O)[C@@H]2Cc2ccccc2)cc1.O=C(O)C(F)(F)F` | -21.99% | -17.04% |
| `O=C(O)C(F)(F)F.O=C(c1ccc[nH]1)N1CCn2cc(Cn3cccn3)nc2C1` | 12.13% & 7.228% | -1.01% |
| `COc1c(C2CCCN2C(=O)c2sccc2C#N)c(C)nn1C` (stereo not shown) | 5.087% & 1.215% | -13.94% |

The values are deposited in ChEMBL (CHEMBL3988442, “University of Dundee, Small-Polar-MMV Screening Library” (2021)).